Test results from PubChem BioAssay AID256 (DTP/NCI, 2004).
The list does not hold the whole screen: it is rich in T/C values a quarter to a half above the control, in often repeated tests (any T/C) and in doses without a T/C. Further doses and runs are listed elsewhere. T/C: endpoint of the treated group in % of that of the vehicle group. Some doses have a count of surviving animals in place of a T/C: the source files T/C as zero there, which appears to mark a toxic dose or a test without result, not a measured value. Some survivor counts are full or nearly so, which does not show that the dose was tolerated: the source hardly ever lists a survival T/C far under the control, and the zero likely stands for such cases as well. Survivors were counted at the toxicity check, usually on the fifth day, unless a day is given; later deaths do not show. Schedule codes are those of the source, read here as Q, the interval in days (D) or hours (H), X, the number of doses.

System: CD2F1 mice, L1210 leukemia ip, survival T/C
Test: NCI In Vivo Anticancer Drug Screen. Data for tumor model L1210 Leukemia (intraperitoneal) in CD2F1 (CDF1) mice
Settings: T/C endpoint: mean survival time, higher T/C = longer survival
How it was run: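 Tumor-bearing mice (transplanted tumor) were split into treated and vehicle control groups, and the measured endpoint of each treated group was divided by that of its vehicle controls.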

[1] = dose: 150.0 mg/kg/injection, schedule: Q01DX001 (ip), vehicle: saline
[2] = dose: 300.0 mg/kg/injection, schedule: Q01DX001 (ip), vehicle: saline

With `O=S1(=O)CCC2C1C1(Cl)C(Cl)=C(Cl)C2(Cl)C1(Cl)Cl` (stereo not given) the survivor count (dose: 50.0 mg/kg/injection, schedule: Q01DX009 (ip), vehicle: saline sonified) was 5 of 6.
In the case of `CC(Br)C(=O)c1ccc2ncccc2c1` (stereo not given), the survivor count (dose: 100.0 mg/kg/injection, schedule: Q04DX002 (ip), vehicle: other) is reported as 0 of 3, the survivor count (dose: 200.0 mg/kg/injection, schedule: Q04DX002 (ip), vehicle: other) is reported as 0 of 3 and the survivor count (dose: 400.0 mg/kg/injection, schedule: Q04DX002 (ip), vehicle: other) is reported as 0 of 3.
For `CN1CCS(=O)(=O)C1=O`, the survivor count (dose: 75.0 mg/kg/injection, schedule: Q01DX001 (ip), vehicle: saline) was 3 of 6, the survivor count [1] was 1 of 6 and the survivor count [2] was 0 of 6.
`O=C1NCCCS1(=O)=O` was tested, and the survivor count [1] was 1 of 6 and the survivor count [2] was 0 of 6.
For `C=C(NC(C)=O)C(=O)O`, the survivor count (dose: 400.0 mg/kg/injection, schedule: Q01DX009 (ip), vehicle: saline with Tween-80) was 4 of 6.
For `NC(=S)N/N=C1/CCN2CCCc3cccc1c32`, the survivor count (dose: 75.0 mg/kg/injection, schedule: Q01DX001 (ip), vehicle: saline with Tween-80) was 0 of 6, the survivor count (dose: 150.0 mg/kg/injection, schedule: Q01DX001 (ip), vehicle: saline with Tween-80) was 0 of 6 and the survivor count (dose: 300.0 mg/kg/injection, schedule: Q01DX001 (ip), vehicle: saline with Tween-80) was 0 of 6.
In the case of `C=C(Br)CNC(=O)OCCCC`, the survivor count (dose: 100.0 mg/kg/injection, schedule: Q01DX009 (ip), vehicle: saline with Tween-80) is reported as 5 of 6 and the survivor count (dose: 200.0 mg/kg/injection, schedule: Q01DX009 (ip), vehicle: saline with Tween-80) is reported as 1 of 6.
